Results taken from the supplement of paper PMC10849652.
The list shows a part of the results.

The chains behind the UniProt entries cited, without tags or fusion partners. Where a name states a change or a piece, a line headed by the entry shows the natural chain unless it says otherwise.
UniProt P23368: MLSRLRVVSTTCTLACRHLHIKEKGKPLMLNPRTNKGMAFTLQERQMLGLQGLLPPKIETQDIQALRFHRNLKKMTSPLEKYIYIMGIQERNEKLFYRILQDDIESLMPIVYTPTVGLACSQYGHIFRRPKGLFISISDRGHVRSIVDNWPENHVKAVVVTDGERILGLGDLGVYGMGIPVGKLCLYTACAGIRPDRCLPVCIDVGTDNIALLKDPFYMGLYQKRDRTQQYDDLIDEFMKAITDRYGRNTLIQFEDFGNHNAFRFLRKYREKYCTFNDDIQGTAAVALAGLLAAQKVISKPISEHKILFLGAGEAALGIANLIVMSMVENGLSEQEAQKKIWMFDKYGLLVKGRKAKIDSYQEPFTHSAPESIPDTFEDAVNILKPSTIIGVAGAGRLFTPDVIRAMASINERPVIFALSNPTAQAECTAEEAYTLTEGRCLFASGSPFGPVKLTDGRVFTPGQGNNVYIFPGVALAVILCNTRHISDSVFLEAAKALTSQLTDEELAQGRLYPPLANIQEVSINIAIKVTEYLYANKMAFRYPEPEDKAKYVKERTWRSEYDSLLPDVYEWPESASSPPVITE
UniProt Q9UBB5, whole entry, looked up: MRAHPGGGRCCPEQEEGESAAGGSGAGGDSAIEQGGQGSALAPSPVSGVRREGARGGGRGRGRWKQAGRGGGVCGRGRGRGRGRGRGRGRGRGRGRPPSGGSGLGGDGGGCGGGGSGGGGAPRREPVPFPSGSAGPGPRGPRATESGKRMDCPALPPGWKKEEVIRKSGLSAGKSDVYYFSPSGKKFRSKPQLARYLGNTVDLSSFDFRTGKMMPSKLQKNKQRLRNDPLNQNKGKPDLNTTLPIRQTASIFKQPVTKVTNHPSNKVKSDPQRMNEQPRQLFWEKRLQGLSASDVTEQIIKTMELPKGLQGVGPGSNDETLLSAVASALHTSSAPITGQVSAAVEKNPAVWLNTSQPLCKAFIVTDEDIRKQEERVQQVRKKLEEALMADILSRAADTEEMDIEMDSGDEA
UniProt P43121, whole entry, looked up: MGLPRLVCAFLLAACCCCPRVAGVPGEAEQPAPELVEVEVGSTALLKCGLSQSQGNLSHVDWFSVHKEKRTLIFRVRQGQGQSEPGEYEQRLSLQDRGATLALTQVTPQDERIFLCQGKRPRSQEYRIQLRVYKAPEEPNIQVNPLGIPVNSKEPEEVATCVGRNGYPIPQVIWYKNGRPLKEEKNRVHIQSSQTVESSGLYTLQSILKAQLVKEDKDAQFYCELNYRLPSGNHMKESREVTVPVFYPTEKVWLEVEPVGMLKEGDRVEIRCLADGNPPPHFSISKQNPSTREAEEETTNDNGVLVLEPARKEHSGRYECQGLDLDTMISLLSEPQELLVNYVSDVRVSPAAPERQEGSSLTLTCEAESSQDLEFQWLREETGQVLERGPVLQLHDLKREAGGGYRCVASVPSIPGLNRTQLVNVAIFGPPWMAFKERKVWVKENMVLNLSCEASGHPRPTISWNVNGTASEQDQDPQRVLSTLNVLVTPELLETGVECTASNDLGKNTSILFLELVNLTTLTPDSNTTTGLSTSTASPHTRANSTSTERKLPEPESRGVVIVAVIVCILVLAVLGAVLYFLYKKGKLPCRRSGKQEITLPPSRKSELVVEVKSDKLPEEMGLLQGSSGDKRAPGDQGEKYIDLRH
UniProt Q8IVS2: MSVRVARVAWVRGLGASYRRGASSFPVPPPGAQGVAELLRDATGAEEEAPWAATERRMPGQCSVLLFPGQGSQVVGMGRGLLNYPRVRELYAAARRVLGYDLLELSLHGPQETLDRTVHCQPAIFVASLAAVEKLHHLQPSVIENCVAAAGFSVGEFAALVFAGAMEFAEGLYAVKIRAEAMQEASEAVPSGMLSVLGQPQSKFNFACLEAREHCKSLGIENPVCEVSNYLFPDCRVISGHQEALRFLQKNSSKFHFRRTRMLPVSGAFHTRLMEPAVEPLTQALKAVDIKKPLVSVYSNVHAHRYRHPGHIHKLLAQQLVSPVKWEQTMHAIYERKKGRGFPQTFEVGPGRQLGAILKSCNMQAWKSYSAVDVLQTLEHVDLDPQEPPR
UniProt Q9HCC0: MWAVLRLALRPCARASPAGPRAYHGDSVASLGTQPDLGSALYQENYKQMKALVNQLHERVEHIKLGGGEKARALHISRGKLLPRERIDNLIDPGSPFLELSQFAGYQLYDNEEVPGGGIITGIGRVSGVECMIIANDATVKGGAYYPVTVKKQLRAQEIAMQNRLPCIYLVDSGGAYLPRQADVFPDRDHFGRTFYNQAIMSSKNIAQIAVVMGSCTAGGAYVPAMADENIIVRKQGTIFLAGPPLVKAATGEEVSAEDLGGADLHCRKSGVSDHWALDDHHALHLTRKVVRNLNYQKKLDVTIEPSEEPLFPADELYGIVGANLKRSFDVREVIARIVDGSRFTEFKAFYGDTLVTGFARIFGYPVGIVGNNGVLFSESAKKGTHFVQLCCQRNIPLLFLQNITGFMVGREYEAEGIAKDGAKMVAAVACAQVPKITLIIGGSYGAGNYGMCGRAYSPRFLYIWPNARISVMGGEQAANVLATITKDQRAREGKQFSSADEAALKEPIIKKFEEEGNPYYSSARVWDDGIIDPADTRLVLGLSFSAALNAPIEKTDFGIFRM
UniProt Q96RQ3: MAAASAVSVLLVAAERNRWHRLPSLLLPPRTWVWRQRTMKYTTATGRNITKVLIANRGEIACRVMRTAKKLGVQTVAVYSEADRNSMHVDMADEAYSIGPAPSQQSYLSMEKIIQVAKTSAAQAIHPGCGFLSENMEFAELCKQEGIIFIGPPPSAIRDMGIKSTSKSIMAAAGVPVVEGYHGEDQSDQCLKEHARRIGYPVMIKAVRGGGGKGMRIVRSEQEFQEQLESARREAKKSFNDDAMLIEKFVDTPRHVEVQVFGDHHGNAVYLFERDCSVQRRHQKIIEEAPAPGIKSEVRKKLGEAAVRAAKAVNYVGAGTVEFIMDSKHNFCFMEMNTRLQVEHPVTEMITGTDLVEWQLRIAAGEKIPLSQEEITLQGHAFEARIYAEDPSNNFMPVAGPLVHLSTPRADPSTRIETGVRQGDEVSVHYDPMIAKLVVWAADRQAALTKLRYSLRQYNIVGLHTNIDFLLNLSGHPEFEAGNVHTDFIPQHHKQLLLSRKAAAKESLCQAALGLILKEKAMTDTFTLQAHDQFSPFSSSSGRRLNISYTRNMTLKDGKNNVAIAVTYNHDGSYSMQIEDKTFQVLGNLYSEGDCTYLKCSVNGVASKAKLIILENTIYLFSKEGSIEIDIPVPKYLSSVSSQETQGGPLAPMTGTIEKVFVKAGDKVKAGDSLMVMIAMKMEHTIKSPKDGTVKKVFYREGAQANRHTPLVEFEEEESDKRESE
UniProt Q14696: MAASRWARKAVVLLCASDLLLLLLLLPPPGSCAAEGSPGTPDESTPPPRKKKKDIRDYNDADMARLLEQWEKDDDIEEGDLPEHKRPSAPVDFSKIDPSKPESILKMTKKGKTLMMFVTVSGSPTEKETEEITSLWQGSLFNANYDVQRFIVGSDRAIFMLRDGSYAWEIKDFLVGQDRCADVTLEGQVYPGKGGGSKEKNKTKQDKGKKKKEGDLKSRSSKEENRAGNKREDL
UniProt Q9NPJ6: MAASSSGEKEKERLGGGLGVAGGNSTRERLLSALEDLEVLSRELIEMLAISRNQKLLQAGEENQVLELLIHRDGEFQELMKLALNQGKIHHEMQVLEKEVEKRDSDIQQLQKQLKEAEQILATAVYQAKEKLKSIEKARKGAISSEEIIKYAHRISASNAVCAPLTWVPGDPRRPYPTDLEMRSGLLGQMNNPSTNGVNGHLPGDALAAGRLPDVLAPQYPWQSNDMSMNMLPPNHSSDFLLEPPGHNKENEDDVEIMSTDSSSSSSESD
UniProt Q9BTT4: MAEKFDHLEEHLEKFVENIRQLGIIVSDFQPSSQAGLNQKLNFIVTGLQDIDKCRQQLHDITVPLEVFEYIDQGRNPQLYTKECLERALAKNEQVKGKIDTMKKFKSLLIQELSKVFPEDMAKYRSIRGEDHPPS
UniProt Q9H8H3: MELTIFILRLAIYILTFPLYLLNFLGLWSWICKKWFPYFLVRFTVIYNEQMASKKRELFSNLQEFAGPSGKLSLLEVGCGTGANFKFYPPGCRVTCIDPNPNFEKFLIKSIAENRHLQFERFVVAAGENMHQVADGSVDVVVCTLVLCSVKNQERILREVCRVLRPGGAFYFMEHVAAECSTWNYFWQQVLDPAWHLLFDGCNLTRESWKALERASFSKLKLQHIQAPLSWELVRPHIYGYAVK
UniProt O95983: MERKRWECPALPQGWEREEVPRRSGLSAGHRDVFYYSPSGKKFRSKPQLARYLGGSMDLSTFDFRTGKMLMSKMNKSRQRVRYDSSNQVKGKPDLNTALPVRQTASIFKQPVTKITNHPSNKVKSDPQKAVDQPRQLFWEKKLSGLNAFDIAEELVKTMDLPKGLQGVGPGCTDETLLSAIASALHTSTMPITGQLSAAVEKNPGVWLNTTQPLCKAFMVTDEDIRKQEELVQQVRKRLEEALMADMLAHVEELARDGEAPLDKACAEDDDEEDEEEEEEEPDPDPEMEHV
UniProt P56270: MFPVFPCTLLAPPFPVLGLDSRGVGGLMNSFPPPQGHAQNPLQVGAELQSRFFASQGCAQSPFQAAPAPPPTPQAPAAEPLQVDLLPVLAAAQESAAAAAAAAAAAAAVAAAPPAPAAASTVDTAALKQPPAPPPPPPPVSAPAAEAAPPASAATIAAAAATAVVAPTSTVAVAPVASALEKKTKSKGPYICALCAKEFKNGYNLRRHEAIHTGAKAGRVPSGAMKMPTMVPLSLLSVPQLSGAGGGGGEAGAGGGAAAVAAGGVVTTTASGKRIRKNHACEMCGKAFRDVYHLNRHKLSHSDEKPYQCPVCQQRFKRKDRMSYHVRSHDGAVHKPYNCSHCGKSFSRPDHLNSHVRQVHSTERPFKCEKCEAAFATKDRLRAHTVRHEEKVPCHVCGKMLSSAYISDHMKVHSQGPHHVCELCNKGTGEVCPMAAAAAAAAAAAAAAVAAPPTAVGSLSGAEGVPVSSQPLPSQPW
UniProt Q96HR3: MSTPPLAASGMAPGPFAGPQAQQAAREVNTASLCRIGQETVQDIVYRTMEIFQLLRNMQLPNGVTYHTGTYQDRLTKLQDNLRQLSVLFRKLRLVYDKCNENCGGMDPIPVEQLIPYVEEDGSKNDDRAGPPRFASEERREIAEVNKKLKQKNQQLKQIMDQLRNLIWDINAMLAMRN
UniProt Q14814: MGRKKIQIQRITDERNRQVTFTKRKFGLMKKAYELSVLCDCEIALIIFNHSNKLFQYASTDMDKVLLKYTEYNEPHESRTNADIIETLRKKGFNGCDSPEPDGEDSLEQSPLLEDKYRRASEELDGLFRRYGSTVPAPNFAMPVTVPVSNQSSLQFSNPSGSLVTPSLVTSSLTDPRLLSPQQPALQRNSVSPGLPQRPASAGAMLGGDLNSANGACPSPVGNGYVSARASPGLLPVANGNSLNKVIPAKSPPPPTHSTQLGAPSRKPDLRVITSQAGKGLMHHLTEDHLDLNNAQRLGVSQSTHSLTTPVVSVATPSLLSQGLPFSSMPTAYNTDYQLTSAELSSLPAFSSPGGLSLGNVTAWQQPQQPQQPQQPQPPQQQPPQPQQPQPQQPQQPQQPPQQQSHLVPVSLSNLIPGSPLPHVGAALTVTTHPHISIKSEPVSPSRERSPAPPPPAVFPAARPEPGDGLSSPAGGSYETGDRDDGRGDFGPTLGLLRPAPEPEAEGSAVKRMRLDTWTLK
UniProt P43243: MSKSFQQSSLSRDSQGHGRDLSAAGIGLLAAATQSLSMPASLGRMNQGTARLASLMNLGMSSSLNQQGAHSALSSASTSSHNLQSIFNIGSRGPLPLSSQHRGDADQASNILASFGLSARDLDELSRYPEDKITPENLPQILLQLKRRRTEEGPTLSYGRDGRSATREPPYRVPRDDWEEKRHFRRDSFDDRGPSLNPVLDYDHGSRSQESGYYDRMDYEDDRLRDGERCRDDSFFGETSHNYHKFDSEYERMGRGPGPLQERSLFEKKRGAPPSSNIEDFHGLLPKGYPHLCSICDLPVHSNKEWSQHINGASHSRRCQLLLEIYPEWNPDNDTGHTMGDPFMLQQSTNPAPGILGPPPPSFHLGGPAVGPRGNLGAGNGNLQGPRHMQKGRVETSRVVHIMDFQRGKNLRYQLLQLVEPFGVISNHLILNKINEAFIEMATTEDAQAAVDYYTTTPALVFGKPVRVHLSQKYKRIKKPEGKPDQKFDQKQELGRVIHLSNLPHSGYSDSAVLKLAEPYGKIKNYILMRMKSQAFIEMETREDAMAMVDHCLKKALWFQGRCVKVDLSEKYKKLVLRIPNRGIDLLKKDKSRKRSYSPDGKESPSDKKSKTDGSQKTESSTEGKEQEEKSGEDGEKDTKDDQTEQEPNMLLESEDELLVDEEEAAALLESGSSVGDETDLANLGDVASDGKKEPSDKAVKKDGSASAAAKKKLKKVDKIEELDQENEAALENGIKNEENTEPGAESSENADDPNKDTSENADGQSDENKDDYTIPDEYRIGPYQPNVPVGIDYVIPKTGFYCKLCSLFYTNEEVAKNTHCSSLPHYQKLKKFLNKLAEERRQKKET

Legend:
Experiment in all cases: log2 fold change, soluble protein after heating vs DMSO (PISA); higher = thermal stabilisation; K562 lysate, 10 uM; active = over 0.2 and 3.5 SD of the protein, either way, in both replicates (recomputed)
ibrutinib = compound: C=CC(=O)N1CCC[C@@H](n2nc(-c3ccc(Oc4ccccc4)cc3)c3c(N)ncnc32)C1 [ibrutinib]
How it was run: (§1)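 The values are log-two fold changes in thermal stability compared with solvent controls and come from duplicates. They were obtained by TMTpro 16plex LC-MS/MS, with channel sums equalised, on the supernatant after 21,000xg for 90 min. That supernatant came from crude K562 extract at 1 mg/mL protein treated with 10 μM compound for 30 min, heated for 3 min across 48°C-58°C, pooled and brought to 0.5% NP-40 at 4°C.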

[1] = compound: CC(=O)c1cnc2ccc(-c3cc(Cl)c(O)c(Cl)c3)nc2c1N[C@H]1CC[C@H](CN(C)C)CC1
How it was run: as §1

ralimetinib = compound: CC(C)(C)Cn1c(N)nc2ccc(-c3[nH]c(C(C)(C)C)nc3-c3ccc(F)cc3)nc21 [ralimetinib]
How it was run: as §1

[2] = compound: CC(C)(O)CC(=O)NCCn1ccc2ncnc(Nc3ccc(Oc4cccc(C(F)(F)F)c4)c(Cl)c3)c21
How it was run: as §1

[3] = compound: CC(C)C1=C2N=C(C=C(N2N=C1)NCC3=CC=CC=C3)NCCCCCCN
How it was run: as §1

[4] = compound: CC1=C(C(CC(=O)N1)C2=CC=C(C=C2)C(F)(F)F)C(=O)NC3=C(C=C4C(=C3)C=NN4)F
How it was run: as §1

[5] = compound: CC1=C(C2=C(C=C1)C(=O)C3=CC=CC=C3N2CCCN)C
How it was run: as §1

[6] = compound: CC1=C(C=C(C=C1)NC(=O)C2=CC(=CC=C2)C(C)(C)C#N)NC3=CC4=C(C=C3)N=CN(C4=O)C
How it was run: as §1

[7] = compound: CC1=C(C=C(C=C1)NC(=O)C2=CC(=CC=C2)N(C)C)NC(=O)C3=CC=C(C=C3)O
How it was run: as §1

[8] = compound: CC1=CC=C(C=C1)SC2=C3C=C(SC3=CN=C2)C(=O)N
How it was run: as §1

vemurafenib = compound: CCCS(=O)(=O)Nc1ccc(F)c(C(=O)c2c[nH]c3ncc(-c4ccc(Cl)cc4)cc23)c1F [vemurafenib]
How it was run: as §1

[9] = compound: CCCS(=O)(=O)Nc1ccc(F)c(C(=O)c2c[nH]c3ncc(Cl)cc23)c1F
How it was run: as §1

barasertib = compound: CCN(CCCOc1ccc2c(Nc3cc(CC(=O)Nc4cccc(F)c4)[nH]n3)ncnc2c1)CCOP(=O)(O)O [barasertib]
How it was run: as §1

[10] = compound: CC[C@@H]1C(=O)N(C)c2cnc(Nc3ccc(C(=O)NC4CCN(C)CC4)cc3OC)nc2N1C1CCCC1
How it was run: as §1

volasertib = compound: CC[C@@H]1C(=O)N(C)c2cnc(Nc3ccc(C(=O)N[C@H]4CC[C@H](N5CCN(CC6CC6)CC5)CC4)cc3OC)nc2N1C(C)C [volasertib]
How it was run: as §1

[11] = compound: CCn1c(C(=O)N(C2CC2)C2CC2)cc2c3c(ncn3C)c(Nc3cc(C)n(C)n3)nc21
How it was run: as §1

[12] = compound: CCn1cc(-c2ccnc3[nH]c(-c4cccc(CN(C)C)c4)cc23)c(-c2ccc(NC(=O)N(C)C)cc2)n1
How it was run: as §1

[13] = compound: CN1CCC(CNc2ccc3ncc(-c4cccc(OC(F)(F)F)c4)n3n2)CC1
How it was run: as §1

saracatinib = compound: CN1CCN(CCOc2cc(OC3CCOCC3)c3c(Nc4c(Cl)ccc5c4OCO5)ncnc3c2)CC1 [saracatinib]
How it was run: as §1

sotrastaurin = compound: CN1CCN(c2nc(C3=C(c4c[nH]c5ccccc45)C(=O)NC3=O)c3ccccc3n2)CC1 [sotrastaurin]
How it was run: as §1

Measured: log2 fold change

ME2 (UniProt P23368)
inactive: ibrutinib 0.003 | [1] -0.004 | ralimetinib -0.005 | [2] 0.029 | [3] -0.042 | [4] -0.011 | [5] -0.029 | [6] 0.008 | [7] -0.001 | [8] 0.021 | vemurafenib -0.011 | [9] 0.006 | barasertib 0.004 | [10] 0.011 | volasertib 0.039 | [11] 0.024 | [12] -0.001 | [13] 0.067 | saracatinib -0.031 | sotrastaurin 0.008

MBD2 (UniProt Q9UBB5)
inactive: ibrutinib 0.013 | [1] 0.018 | ralimetinib -0.043 | [2] -0.03 | [3] 0.016 | [4] -0.013 | [5] -0.017 | [6] -0.053 | [7] -0.048 | [8] 0.007 | vemurafenib -0.014 | [9] 0.016 | barasertib -0.009 | [10] 0.059 | volasertib -0.021 | [11] 0.073 | [12] -0.005 | [13] -0.007 | saracatinib -0.036 | sotrastaurin -0.089

MCAM (UniProt P43121)
inactive: ibrutinib 0.013 | [1] -0.013 | ralimetinib 0.021 | [2] -0.046 | [3] -0.016 | [4] -0.001 | [5] -0.01 | [6] 0.024 | [7] 0.004 | [8] -0.039 | vemurafenib 0.038 | [9] 0.021 | barasertib 0.019 | [10] 0.165 | volasertib 0.018 | [11] -0.031 | [12] -0.07 | [13] 0.082 | saracatinib -0.009 | sotrastaurin -0.006

MCAT (UniProt Q8IVS2)
inactive: ibrutinib 0.004 | [1] 0.005 | ralimetinib 0.028 | [2] -0.013 | [3] 0.013 | [4] 0.012 | [5] -0.006 | [6] 0.015 | [7] -0.007 | [8] -0.014 | vemurafenib -0.033 | [9] 0.063 | barasertib -0.01 | [10] -0.026 | volasertib -0.013 | [11] 0.007 | [12] -0.038 | [13] 0.046 | saracatinib -0.004 | sotrastaurin 0.019

MCCC2 (UniProt Q9HCC0)
inactive: ibrutinib -0.001 | [1] -0.008 | ralimetinib 0.001 | [2] 0.007 | [3] -0.003 | [4] 0.016 | [5] 0 | [6] 0.018 | [7] -0.003 | [8] -0.025 | vemurafenib 0.009 | [9] -0.008 | barasertib -0.035 | [10] 0.017 | volasertib 0.003 | [11] -0.009 | [12] -0.032 | [13] 0.015 | saracatinib -0.017 | sotrastaurin 0.002

MCCC1 (UniProt Q96RQ3)
inactive: ibrutinib 0.034 | [1] -0.033 | ralimetinib 0.022 | [2] -0.042 | [3] -0.014 | [4] -0.028 | [5] 0.026 | [6] -0.006 | [7] -0.004 | [8] 0.013 | vemurafenib 0.065 | [9] 0.009 | barasertib 0.015 | [10] 0.005 | volasertib -0.034 | [11] -0.025 | [12] 0.139 | [13] -0.059 | saracatinib 0.028 | sotrastaurin 0.054

MESD (UniProt Q14696)
inactive: ibrutinib 0.014 | [1] -0.001 | ralimetinib 0.035 | [2] 0.03 | [3] -0.023 | [4] -0.01 | [5] 0.024 | [6] -0.063 | [7] 0.013 | [8] -0.005 | vemurafenib -0.117 | [9] -0.018 | barasertib -0.026 | [10] -0.075 | volasertib 0.024 | [11] 0.037 | [12] -0.073 | [13] 0.067 | saracatinib -0.017 | sotrastaurin 0.008

MED16 (UniProt Q9Y2X0)
inactive: ibrutinib -0.113 | [1] -0.012 | ralimetinib 0.057 | [2] 0.046 | [3] -0.014 | [4] 0.021 | [5] -0.01 | [6] -0.038 | [7] -0.018 | [8] 0.005 | vemurafenib -0.059 | [9] 0.008 | barasertib -0.113 | [10] -0.04 | volasertib -0.036 | [11] 0.056 | [12] 0.177 | [13] -0.189 | saracatinib -0.014 | sotrastaurin -0.018

MED4 (UniProt Q9NPJ6)
inactive: ibrutinib 0.049 | [1] -0.023 | ralimetinib 0.025 | [2] -0.008 | [3] -0.023 | [4] 0.009 | [5] -0.07 | [6] 0.054 | [7] -0.017 | [8] 0.013 | vemurafenib 0.014 | [9] -0.003 | barasertib -0.004 | [10] 0.075 | volasertib 0.02 | [11] 0.007 | [12] -0.012 | [13] 0.071 | saracatinib -0.029 | sotrastaurin 0.017

MED10 (UniProt Q9BTT4)
inactive: ibrutinib -0.029 | [1] -0.087 | ralimetinib -0.015 | [2] -0.055 | [3] -0.019 | [4] -0.013 | [5] -0.025 | [6] 0.02 | [7] 0.074 | [8] 0.074 | vemurafenib 0.037 | [9] 0 | barasertib 0.08 | [10] 0.133 | volasertib 0.066 | [11] -0.009 | [12] 0.107 | [13] -0.059 | saracatinib 0.077 | sotrastaurin -0.015

METTL7A (UniProt Q9H8H3)
inactive: ibrutinib 0.113 | [1] -0.055 | ralimetinib 0.036 | [2] -0.025 | [3] 0.017 | [4] 0.016 | [5] -0.055 | [6] 0.068 | [7] -0.033 | [8] -0.035 | vemurafenib -0.08 | [9] 0.056 | barasertib -0.123 | [10] -0.022 | volasertib 0.226 | [11] -0.018 | [12] 0.014 | [13] 0.081 | saracatinib -0.028 | sotrastaurin -0.028

2 consecutive records out of the list so far, quoted:
MESD (UniProt Q14696)
inactive: ibrutinib 0.014 | [1] -0.001 | ralimetinib 0.035 | [2] 0.03 | [3] -0.023 | [4] -0.01 | [5] 0.024 | [6] -0.063 | [7] 0.013 | [8] -0.005 | vemurafenib -0.117 | [9] -0.018 | barasertib -0.026 | [10] -0.075 | volasertib 0.024 | [11] 0.037 | [12] -0.073 | [13] 0.067 | saracatinib -0.017 | sotrastaurin 0.008

MED16 (UniProt Q9Y2X0)
inactive: ibrutinib -0.113 | [1] -0.012 | ralimetinib 0.057 | [2] 0.046 | [3] -0.014 | [4] 0.021 | [5] -0.01 | [6] -0.038 | [7] -0.018 | [8] 0.005 | vemurafenib -0.059 | [9] 0.008 | barasertib -0.113 | [10] -0.04 | volasertib -0.036 | [11] 0.056 | [12] 0.177 | [13] -0.189 | saracatinib -0.014 | sotrastaurin -0.018

Additional records follow.

MBD3 (UniProt O95983)
inactive: ibrutinib 0.023 | [1] -0.006 | ralimetinib -0.035 | [2] 0.018 | [3] -0.002 | [4] 0.028 | [5] 0.016 | [6] -0.035 | [7] 0.013 | [8] -0.007 | vemurafenib -0.061 | [9] 0.001 | barasertib -0.033 | [10] 0.025 | volasertib -0.028 | [11] 0.041 | [12] -0.054 | [13] 0.079 | saracatinib 0.037 | sotrastaurin -0.039

MAZ isoform 2 (UniProt P56270)
inactive: ibrutinib 0.119 | [1] -0.006 | ralimetinib 0.013 | [2] -0.108 | [3] 0.102 | [4] 0.011 | [5] 0.023 | [6] 0.074 | [7] -0.054 | [8] 0.023 | vemurafenib -0.038 | [9] 0.051 | barasertib -0.021 | [10] 0.051 | volasertib 0.055 | [11] 0.034 | [12] -0.007 | [13] 0.092 | saracatinib -0.062 | sotrastaurin -0.039

MED30 (UniProt Q96HR3)
inactive: ibrutinib 0.095 | [1] 0.003 | ralimetinib 0.034 | [2] -0.073 | [3] -0.002 | [4] 0 | [5] -0.021 | [6] -0.015 | [7] 0.003 | [8] -0.006 | vemurafenib -0.041 | [9] 0.028 | barasertib 0.053 | [10] -0.032 | volasertib 0.006 | [11] 0.011 | [12] -0.002 | [13] 0.038 | saracatinib 0.014 | sotrastaurin 0.04

MEF2D (UniProt Q14814)
inactive: ibrutinib 0.015 | [1] 0.01 | ralimetinib 0.08 | [2] -0.019 | [3] -0.003 | [4] 0.051 | [5] -0.003 | [6] -0.038 | [7] 0.013 | [8] 0.032 | vemurafenib 0.004 | [9] 0.038 | barasertib -0.018 | [10] 0.032 | volasertib -0.009 | [11] -0.034 | [12] 0.02 | [13] 0.046 | saracatinib 0.032 | sotrastaurin 0.032

MATR3 (UniProt P43243)
inactive: ibrutinib -0.001 | [1] -0.028 | ralimetinib -0.014 | [2] -0.098 | [3] 0.048 | [4] 0.026 | [5] -0.043 | [6] 0.126 | [7] 0.024 | [8] -0.007 | vemurafenib 0.002 | [9] 0.028 | barasertib -0.003 | [10] 0.049 | volasertib -0.018 | [11] 0.015 | [12] 0.074 | [13] 0.02 | saracatinib -0.014 | sotrastaurin 0.02
